This data set can be described thus: general procedure: Fmoc solid-phase peptide synthesis; TentaGel TGR or Sieber amide resin (0.2 mmol/g or 0.5 mmol/g); TBTU/DIEA. As to conditions: conjugation step.
In turn, “1st Generation Insulin-N^εB29-Mpa-Dendrimer (78)” had a conjugation yield of 43%. In the case of “2nd Generation Insulin-N^εB29-Mpa-Dendrimer (79)” it was 40%. In the case of “3rd Generation Insulin-N^εB29-Mpa-Dendrimer (80)”, the conjugation yield is reported as 38%.

The values above are taken from patent US8450097 (dated 2013).
